69 sequences from PubChem BioAssay AID1347426 (Functional Genomics Laboratory (NCATS/FGL), 2020) can be followed below.

Among all 31,000 sequences or so, about 1,400 (4.5%) were called active.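 How the source made its calls: active means median seed-adjusted z-score above 1 or below -1; inactive means the rest.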 Some of the results follow.

The nature of this experiment: Novel Modifiers of Survival Motor Neuron (SMN) Protein: Gene Identification via Genome-wide siRNA Screen.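 Further: luminescence tracks full-length SMN protein made from the SMN2 reporter.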 As to conditions: HEK293T SMN2-luciferase reporter, siRNA knockdown, 72 h; actives lie on both sides. In a few lines:
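Steps: spot 1 pmol siRNA, add Lipofectamine RNAiMax in serum-free DMEM, seed HEK293T SMN2–luciferase reporter cells; incubate 72 h at 37 °C; add ONE-Glo; normalize luminescence to control siRNA, log10, MAD. Candidates: |MAD| > 1.0.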
Background: Reporter assays use an easily measured gene product as a stand-in for the process of interest.
On to CUCCACCCUUCAACCCAAATT against SGK2, for which the median seed-adjusted z-score is inactive: 0.306.

Consider CGAGGAAUGGUAAUAGUGATT against ZFPM2, for which the median seed-adjusted z-score is inactive: 0.087.

As to CCCAGUUGCUCUAACGAAATT against DHRS7B, the median seed-adjusted z-score was inactive: 0.294.

With GAUCGUCACAAGAAAGAUUTT against ZNF75A, the median seed-adjusted z-score is inactive: 0.303.

On to GAAACGAUGUUGUGGAGAATT against TNFRSF21, for which the median seed-adjusted z-score is inactive: 0.225.

As to GCCUCGUGGAAAUACAGUATT against GIT2, the median seed-adjusted z-score was inactive: 0.338.

With GCUGGGUAGUUUGACUGAATT against TRIM61, the median seed-adjusted z-score is inactive: 0.0116.

As for CAGUGAGAGUUUCAUCUUUTT against PKD1L2, the median seed-adjusted z-score is active: -1.17.

In the case of GAGAUGUUCAUGCUACUAATT against SCN7A, the median seed-adjusted z-score is inactive: 0.

Consider CAAUAUUCCGUACAUAGAATT against MRAS, for which the median seed-adjusted z-score is inactive: 0.032.

For the sequence CAGUUAUAUGAACGAAUUATT against PLS3, the median seed-adjusted z-score is inactive: -0.167.

With GGUGCAACCUUCAAAGACATT against ZNF687, the median seed-adjusted z-score is inactive: 0.

On to GCUUAUAGCUGCUACAAUUTT against MTMR1, for which the median seed-adjusted z-score was inactive: -0.0204.

For the sequence GCCCAUUGACUAUUACUUUTT against AR, the median seed-adjusted z-score was inactive: -0.559.

Regarding GAAAGUUGUCAAUACCUGUTT against SRA1, the median seed-adjusted z-score is inactive: 0.677.

GGCUCAGAAAAUUAGAGAATT against P4HA3: the median seed-adjusted z-score is inactive: 0.

In the case of GACUAGUUUUGAUCAGGAATT against ZBTB5, the median seed-adjusted z-score is inactive: 0.314.

Turning to CCUCGAGUACAACAAUGAATT against RKHD4, the median seed-adjusted z-score was inactive: 0.0683.

Turning to GGUUCAGAUUCACACCUAUTT against FKBP9, the median seed-adjusted z-score is inactive: 0.359.

Take CGUGUCAAGUUUACACUGATT against MFSD2: the median seed-adjusted z-score is inactive: -0.325.

Regarding GGAAUUUUACCAAUCCGUUTT against PCDHA13, the median seed-adjusted z-score is inactive: -0.624.

Regarding CCCUACCUAUGGUCAACAATT against LPP, the median seed-adjusted z-score is inactive: -0.103.

Turning to CUUCACUGGUUUUACUAAATT against ABCB6, the median seed-adjusted z-score is inactive: -0.359.

In the case of CGUUCGUGAUGGACUACUATT against GPR109B, the median seed-adjusted z-score is inactive: 0.321.

CCACUAUAUUUCACGUUCATT against FUT2: the median seed-adjusted z-score was inactive: -0.878.

In the case of AGACCGACCUGGGCAUGAATT against SARM1, the median seed-adjusted z-score was inactive: 0.343.

CGUACUUGGUAGACAUGCATT against FZD2: the median seed-adjusted z-score is inactive: -0.0134.

Consider GCUCCUCAGUGGUUGGAAATT against WDFY1, for which the median seed-adjusted z-score was inactive: 0.979.

On to GCACACUGUUCGAAGCUGATT against ALOX15, for which the median seed-adjusted z-score is inactive: 0.0369.

In the case of AGGAGUAUGUUCUACUAAATT against ESRRA, the median seed-adjusted z-score is inactive: -0.833.

As to GAGUUAUCCUUAAUGGAUUTT against SIX4, the median seed-adjusted z-score is inactive: 0.0462.

As to CAAAAACUUUCAAUGCAAUTT against ZNF695, the median seed-adjusted z-score is inactive: -0.358.

GGCAUGUAUCUAUUAGUUATT against GAB1: the median seed-adjusted z-score was inactive: 0.373.

Take CCAUCAACCUUCACUCACATT against PKNOX2: the median seed-adjusted z-score was inactive: 0.0976.

Take ACAGUAGAGUCACCACCUATT against AFAR3: the median seed-adjusted z-score was inactive: 0.0433.

For GGUACUACGUGUCUAAGAATT against PCAF, the median seed-adjusted z-score was inactive: -0.00665.

For CACUUUCCUUAAUCCGGUUTT against BTBD1, the median seed-adjusted z-score is inactive: 0.0192.

As for GCAUCGACCAAAACUUAUUTT against ATXN3, the median seed-adjusted z-score was inactive: 0.04.

In the case of GGAGUUUGAGGUAUACCUATT against IL6, the median seed-adjusted z-score is inactive: -0.436.

For GGAUUAAUGCUAAAUUUGUTT against HECTD2, the median seed-adjusted z-score is inactive: 0.405.

Turning to GCUGUAAACAGUCAUCAGATT against ZNF180, the median seed-adjusted z-score is inactive: 0.

Consider GCAAGGUCCUCAGUCAAAATT against ZNF818, for which the median seed-adjusted z-score is inactive: -0.223.

UGAUGAUGCAUACAGUGUATT against SCGB2A1: the median seed-adjusted z-score is inactive: 0.

CUAUCGUCAAUGUAUGGUATT against EIF3I: the median seed-adjusted z-score was inactive: -0.0445.

As to GCUUUCUACAAGUAUAAGATT against ERO1LB, the median seed-adjusted z-score was inactive: 0.565.

GCCUCACUCUCAACGUGCATT against PVRL1: the median seed-adjusted z-score was inactive: -0.362.

As for GGAGUUACAUCAGACCUAUTT against MOGAT1, the median seed-adjusted z-score is inactive: 0.293.

As to CAUCCCAUCAAGUUAGUUUTT against SLC25A13, the median seed-adjusted z-score is inactive: 0.00924.

Turning to GGUGCUUCAGGAUACCAUATT against HFE, the median seed-adjusted z-score is inactive: -0.677.

For ACUGCAUCCGGAUCACUGATT against CXXC1, the median seed-adjusted z-score is inactive: -0.841.

For the sequence CAUUGUUAUUGCUGACUUUTT against P2RY14, the median seed-adjusted z-score is inactive: -0.0536.

For the sequence GCAGAUUGGUGACCUGGUATT against MIB1, the median seed-adjusted z-score was inactive: 0.

Turning to GCCUGGAAUUCUACCGCUATT against SLC29A1, the median seed-adjusted z-score is inactive: 0.117.

Take GAGAUAUACGAGGAGAUUATT against TIGD1: the median seed-adjusted z-score was inactive: 0.224.

Take GCUGUUUUCUAUUAUUCGATT against SLC2A4: the median seed-adjusted z-score is inactive: 0.0588.

As to GAUGAAGACUGAAGGUGUATT against NDUFB2, the median seed-adjusted z-score is inactive: 0.063.

Regarding CCCUAGCUGUGGGUCAGAATT against DLL4, the median seed-adjusted z-score is inactive: 0.299.

GAGCUUAGUGAUAAUAUAATT against ANP32E: the median seed-adjusted z-score was inactive: -0.0648.

Regarding ACUCUAUCCUUGCUUUGCATT against ZNF219, the median seed-adjusted z-score is inactive: 0.127.

For CCACUUUAAGAAAAAUCGATT against DLGAP1, the median seed-adjusted z-score was inactive: 0.357.

On to GGACCAGUUUGGUAUUAGATT against GPR62, for which the median seed-adjusted z-score was inactive: 0.0306.

On to AGUCUACAUCCAGUACCAATT against GUCA2B, for which the median seed-adjusted z-score is inactive: -0.146.

Regarding CUCUUCAACAGGGAGCUGATT against GPR27, the median seed-adjusted z-score is inactive: -0.678.

Consider CGAAGAGGAUGUCACCGAATT against SLC22A1, for which the median seed-adjusted z-score was inactive: -0.637.

GACCAGGCGAUAAAAAGUATT against TXNL4B: the median seed-adjusted z-score is inactive: 0.762.

For CAACAUCUUUAAGCGGUCATT against NSUN4, the median seed-adjusted z-score was inactive: -0.491.

For CCUGGAUCCAAAUAGCGAATT against SMARCA2, the median seed-adjusted z-score was inactive: -0.458.

Regarding CUACUGUUCUUGACCACAATT against DHX15, the median seed-adjusted z-score was active: 1.36.

For GCACUCAAGUUGUUUAACUTT against HOXA5, the median seed-adjusted z-score is inactive: 0.
